Measurements as given in article PMC2980477.
No constants are given. Whether binding was seen depends on the method and setting. In cells and extracts the contact can be indirect. Some results given as binding are weak or reduced against the parent protein; the word gives no strength. For part of these data: Where a sequence is shown, tags or fusion partners need not be part of it.

Amino acid sequences for entries named in this document (tags omitted).
UniProt P06239: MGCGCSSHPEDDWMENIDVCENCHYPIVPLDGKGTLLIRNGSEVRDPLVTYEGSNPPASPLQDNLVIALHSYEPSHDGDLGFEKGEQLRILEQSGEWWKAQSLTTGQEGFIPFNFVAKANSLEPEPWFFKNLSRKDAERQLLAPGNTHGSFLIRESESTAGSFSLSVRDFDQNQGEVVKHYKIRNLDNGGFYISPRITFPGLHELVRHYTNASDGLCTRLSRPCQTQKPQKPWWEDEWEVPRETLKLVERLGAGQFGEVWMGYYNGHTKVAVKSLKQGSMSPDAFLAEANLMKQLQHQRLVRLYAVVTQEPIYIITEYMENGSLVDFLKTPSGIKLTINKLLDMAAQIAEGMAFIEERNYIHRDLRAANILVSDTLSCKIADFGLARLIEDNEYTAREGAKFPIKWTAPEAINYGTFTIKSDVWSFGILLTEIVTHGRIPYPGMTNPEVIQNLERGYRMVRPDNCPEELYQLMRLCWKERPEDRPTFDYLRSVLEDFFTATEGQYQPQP
UniProt P43403: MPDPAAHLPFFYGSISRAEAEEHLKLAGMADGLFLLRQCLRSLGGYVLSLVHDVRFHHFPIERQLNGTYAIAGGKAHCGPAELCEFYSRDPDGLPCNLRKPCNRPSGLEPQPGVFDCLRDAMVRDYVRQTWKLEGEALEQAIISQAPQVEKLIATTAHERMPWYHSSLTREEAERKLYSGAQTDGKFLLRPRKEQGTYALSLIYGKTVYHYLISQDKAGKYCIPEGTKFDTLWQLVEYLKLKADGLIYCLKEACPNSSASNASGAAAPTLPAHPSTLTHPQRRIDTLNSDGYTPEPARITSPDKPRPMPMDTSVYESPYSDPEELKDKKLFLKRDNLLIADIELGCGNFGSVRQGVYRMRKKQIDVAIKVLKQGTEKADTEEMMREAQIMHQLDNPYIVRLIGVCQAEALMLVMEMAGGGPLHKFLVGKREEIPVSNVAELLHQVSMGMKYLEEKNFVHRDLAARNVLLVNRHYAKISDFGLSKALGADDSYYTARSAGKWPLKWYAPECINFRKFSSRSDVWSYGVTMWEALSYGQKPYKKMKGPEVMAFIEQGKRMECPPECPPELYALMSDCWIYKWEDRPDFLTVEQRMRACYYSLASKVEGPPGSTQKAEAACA

Experiments:
[1] = molecular target: CD3ζ (human (endogenous in Jurkat)) (UniProt P20963); assay: co-IP; total lysates of Jurkat T cells expressing HA-RhoH and transfected with EGFP, CA-Lck, KD-Lck, AA-ZAP-70 or KA-ZAP-70; IP with anti-ZAP-70, anti-Lck or anti-HA; immunoblot
[2] = molecular target: Lck (human (endogenous in Jurkat)) (UniProt P06239); assay: as above
[3] = molecular target: CD3ζ (human (endogenous in Jurkat)) (UniProt P20963); assay: co-IP; Jurkat T cells expressing HA-RhoH, stimulated or not with anti-CD3ε antibody, fractionated into cytosol, detergent-soluble and detergent-insoluble membrane fractions; IP with anti-ZAP-70, anti-Lck or anti-CD3ζ; immunoblot
[4] = molecular target: Lck (human (endogenous in Jurkat)) (UniProt P06239); assay: as above
[5] = molecular target: Lck (mouse (endogenous in thymocytes and lymph node T cells)), P06240; assay: co-IP; total lysates of thymocytes and lymph node T cells of wild type and Rhoh-/- mice, unstimulated or stimulated with anti-CD3/28 Abs for 2 min; IP of Lck, immunoblot for CD3ζ; details: remark: other sources report otherwise
ZAP-70 (human) [6] = molecular target: ZAP-70 (human) (UniProt P43403); assay: condition: only co-expressed with kinase-dead Lck (KD-Lck); co-IP; total lysates of HEK293 cells co-transfected with HA-RhoH, kinase-dead Lck (KD-Lck) and ZAP-70; IP with anti-ZAP-70 or anti-HA; immunoblot
[7] = molecular target: ZAP-70 (human (endogenous in Jurkat)) (UniProt P43403); assay: co-IP; total lysates of Jurkat T cells expressing HA-RhoH and transfected with EGFP, CA-Lck, KD-Lck, AA-ZAP-70 or KA-ZAP-70; IP with anti-ZAP-70, anti-Lck or anti-HA; immunoblot
[8] = molecular target: ZAP-70 (human (endogenous in Jurkat)) (UniProt P43403); assay: co-IP; Jurkat T cells expressing HA-RhoH, stimulated or not with anti-CD3ε antibody, fractionated into cytosol, detergent-soluble and detergent-insoluble membrane fractions; IP with anti-ZAP-70, anti-Lck or anti-CD3ζ; immunoblot
ZAP-70 (human) [9] = molecular target: ZAP-70 (human) (UniProt P43403); assay: co-IP; total lysates of HEK293 cells transfected with combinations of HA-RhoH, CA-Lck and ZAP-70 or KA-ZAP-70; IP with anti-HA or anti-ZAP-70; immunoblot

In the case of ZAP-70 (from UniProt P43403 1-619), the binding [1] is reported as “binds”, the binding [2] is reported as “binds” and the binding [3] is reported as “binds”. The binding [4] was “binds”.

B1: CD3ζ, P24161-1 22-164 (protein)
chain: QSFGLLDPKLCYLLDGILFIYGVIITALYLRAKFSRSAETAANLQDPNQLYNELNLGRREEYDVLEKKRARDPEMGGKQQRRRNPQEGVYNALQKDKMAEAYSEIGTKGERRRGKGHDGLYQGLSTATKDTYDALHMQTLAPR
B1 was tested, and the binding [5] was “binds”.

B2: HA-RhoH (protein, UniProt Q15669 1-191)
chain: MLSSIKCVLVGDSAVGKTSLLVRFTSETFPEAYKPTVYENTGVDVFMDGIQISLGLWDTAGNDAFRSIRPLSYQQADVVLMCYSVANHNSFLNLKNKWIGEIRSNLPCTPVLVVATQTDQREMGPHRASCVNAMEGKKLAQDVRAKGYLECSALSNRGVQQVFECAVRTAVNQARRRNRRRLFSINECKIF
For B2, the binding (ZAP-70 (human) [6]) was “no binding”, the binding [7] was “binds” and the binding [8] was “binds”. For the same molecule, the binding (ZAP-70 (human) [9]) was “binds”.
